Measured values from paper PMC12072422.
No constants are given. Whether binding was seen depends on the method and setting. Binding seen in cells or lysates may run through a third protein. Some entries that bind do so weakly or less than the wild type. Where a sequence is shown, tags or fusion partners need not be part of it.

Sequences of proteins named here, by UniProt entry; tags and fusion partners are left off.
UniProt Q38998: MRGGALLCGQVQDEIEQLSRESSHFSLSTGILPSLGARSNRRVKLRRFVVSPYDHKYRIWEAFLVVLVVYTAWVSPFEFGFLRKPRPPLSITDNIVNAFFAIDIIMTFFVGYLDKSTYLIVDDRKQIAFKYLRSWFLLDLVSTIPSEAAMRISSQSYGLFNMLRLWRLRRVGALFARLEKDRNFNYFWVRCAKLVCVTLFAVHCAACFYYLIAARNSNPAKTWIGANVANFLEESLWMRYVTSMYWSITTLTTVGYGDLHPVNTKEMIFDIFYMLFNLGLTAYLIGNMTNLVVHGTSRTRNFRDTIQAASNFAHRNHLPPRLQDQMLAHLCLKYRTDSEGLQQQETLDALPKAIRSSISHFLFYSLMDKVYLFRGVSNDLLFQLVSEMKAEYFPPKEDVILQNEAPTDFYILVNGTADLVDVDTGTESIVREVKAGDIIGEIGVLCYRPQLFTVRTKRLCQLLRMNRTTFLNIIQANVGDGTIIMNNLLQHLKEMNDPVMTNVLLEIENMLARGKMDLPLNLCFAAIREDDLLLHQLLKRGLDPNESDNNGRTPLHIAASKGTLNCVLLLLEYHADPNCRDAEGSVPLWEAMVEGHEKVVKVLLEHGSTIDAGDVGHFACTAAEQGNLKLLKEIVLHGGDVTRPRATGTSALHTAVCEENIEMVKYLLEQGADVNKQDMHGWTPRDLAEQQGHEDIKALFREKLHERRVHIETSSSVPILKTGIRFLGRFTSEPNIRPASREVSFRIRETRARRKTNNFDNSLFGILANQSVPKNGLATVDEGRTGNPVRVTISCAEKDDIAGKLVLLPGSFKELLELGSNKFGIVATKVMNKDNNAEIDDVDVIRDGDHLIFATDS

Target: T1, AtCIPK23 (luciferase fragment fusion) (Arabidopsis thaliana (by the prefix At)) (UniProt Q93VD3)
T1 sequence: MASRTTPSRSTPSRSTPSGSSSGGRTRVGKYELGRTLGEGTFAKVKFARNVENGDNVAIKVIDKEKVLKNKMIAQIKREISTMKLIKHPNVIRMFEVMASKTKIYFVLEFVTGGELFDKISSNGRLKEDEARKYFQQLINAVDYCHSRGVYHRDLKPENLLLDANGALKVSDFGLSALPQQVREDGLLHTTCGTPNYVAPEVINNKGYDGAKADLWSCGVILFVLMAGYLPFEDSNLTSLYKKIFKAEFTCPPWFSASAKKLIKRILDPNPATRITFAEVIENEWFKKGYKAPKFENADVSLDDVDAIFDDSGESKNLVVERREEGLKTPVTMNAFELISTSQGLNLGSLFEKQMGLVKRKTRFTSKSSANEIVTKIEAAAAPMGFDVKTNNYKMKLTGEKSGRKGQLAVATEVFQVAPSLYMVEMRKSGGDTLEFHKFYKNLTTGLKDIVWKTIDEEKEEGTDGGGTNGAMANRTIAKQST
Test: split reporter; luciferase complementation (BiLC; nLUC and cLUC fusions) in Nicotiana benthamiana leaves infiltrated with Agrobacterium GV3101, 24 h in the dark at 25 °C, chemiluminescence imaging

**Q.** “AtAKT1 (luciferase fragment fusion) (from UniProt Q38998 1-857)” was tested. Which binding did it give?
**A.** binds
